Experimental data taken from patent US20210115087A1, “CYCLIC PEPTIDE INHIBITORS OF HEDGEHOG PROTEINS” (University of Rochester, priority 2016, published 2021).
No constants are given. Whether binding was seen depends on the method and setting. Some results given as binding are weak or reduced against the parent protein; the word gives no strength.

By UniProt entry, the sequences of proteins in these tests, tags left out. Residues count along the entry.
UniProt Q14623, residues 28-202: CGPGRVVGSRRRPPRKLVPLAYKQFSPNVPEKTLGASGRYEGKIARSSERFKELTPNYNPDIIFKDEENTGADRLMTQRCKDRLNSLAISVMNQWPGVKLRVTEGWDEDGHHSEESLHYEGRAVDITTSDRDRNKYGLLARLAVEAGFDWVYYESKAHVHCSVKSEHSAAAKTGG
UniProt Q15465, residues 24-197: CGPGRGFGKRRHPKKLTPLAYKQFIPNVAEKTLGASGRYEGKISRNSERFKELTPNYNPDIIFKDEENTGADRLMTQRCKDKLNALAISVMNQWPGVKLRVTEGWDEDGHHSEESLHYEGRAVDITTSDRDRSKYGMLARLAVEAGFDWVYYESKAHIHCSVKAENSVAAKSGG

Tests used:
[1] = target: GST-Dhh (recombinant GST-fused human Desert Hedgehog) (human) (UniProt O43323); experiment: direct binding ELISA: immobilized GST-Dhh, biotinylated peptide at a fixed concentration, HRP-conjugated streptavidin; response normalized to the highest of the three Hh proteins
[2] = target: GST-Ihh (recombinant GST-fused human Indian Hedgehog) (human) (UniProt Q14623); experiment: direct binding ELISA: immobilized GST-Ihh, biotinylated peptide at a fixed concentration, HRP-conjugated streptavidin; response normalized to the highest of the three Hh proteins
[3] = target: GST-Shh (recombinant GST-fused human Sonic Hedgehog) (human) (UniProt Q15465); experiment: direct binding ELISA: immobilized GST-Shh, biotinylated peptide at a fixed concentration, HRP-conjugated streptavidin; response normalized to the highest of the three Hh proteins
[4] = target: GST-Dhh (recombinant GST-fused human Desert Hedgehog) (human) (UniProt O43323); experiment: direct binding to immobilized GST-Hh proteins at a fixed peptide concentration (FIG. 14; biotinylated peptides and HRP-streptavidin by the legend)
[5] = target: GST-Ihh (recombinant GST-fused human Indian Hedgehog) (human) (UniProt Q14623); experiment: as above
[6] = target: GST-Shh (recombinant GST-fused human Sonic Hedgehog) (human) (UniProt Q15465); experiment: as above

- binding [1]: binds
- binding [2]: binds
- binding [3]: binds
- binding [4]: binds
- binding [5]: binds
- binding [6]: binds
Binder: TLDDMEEMDGLSD (biotinylated (site and spacer not stated)) [Biot-HL2-pep]
